Data reported in the supplement of paper PMC12462457.
Where a name gives a salt, the structure may show the parent alone. ± gives the standard deviation of the averaged measurements. The list shows a part of the results. Single values are uncertain here, since repeats match poorly.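 Cell counts came from imaging DAPI-stained nuclei, excluding as dead any cells lacking phalloidin-stained cytoplasm. Counts per well were normalized to the median vehicle-well count on that plate, and the values were averaged over two replicate plates.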

Test system: OVCAR8
Test: cell count relative to DMSO vehicle (fold change); higher = more surviving senescent cells (less killing)
Details: senescence inducer: cisplatin 10 µM 48 h, then 6 d recovery (CP senescent), exposure time 24 h

Structure (SMILES)	cell count (compound dose 1 µM)	cell count (compound dose 5 µM)
O=C1NC(=O)C(=Cc2ccc(-c3ccc(F)cc3)o2)S1 (stereo in doubt)	0.807 ± 0.012	0.723 ± 0.22
CN(C)C/C=C/C(=O)Nc1cc2c(Nc3ccc(F)c(Cl)c3)ncnc2cc1O[C@H]1CCOC1 [Afatinib]	0.635 ± 0.2	0.449 ± 0.14
C/C=C/C/C=C/CCC(=O)[C@H]1O[C@H]1C(N)=O [Cerulenin]	1.14 ± 0.076	1.31 ± 0.24
CC(C)S(=O)(=O)c1ccc2nccc(Nc3ccc4scnc4c3)c2c1	0.852 ± 0.26	0.87 ± 0.16
Oc1cc(O)c2c(c1)O[C@H](c1ccc(O)c(O)c1)[C@H](O)[C@H]2c1c(O)cc(O)c2c1O[C@H](c1ccc(O)c(O)c1)[C@H](O)[C@H]2c1c(O)cc(O)c2c1O[C@H](c1ccc(O)c(O)c1)[C@H](O)C2 [Procyanidin C1]	1.17 ± 0.043	1.05 ± 0.04
C[N+](C)(C)CCC(=O)c1ccc2ccccc2c1	1.17 ± 0.043	0.983 ± 0.16
C[C@H](NC(=O)C(=O)Nc1ccccc1C(C)(C)C)C(=O)N[C@@H](CC(=O)O)C(=O)COc1c(F)c(F)cc(F)c1F [Emricasan]	1.15 ± 0.044	1.529 ± 0.0028
CN(C)CCN1CCN(CCCN2c3ccccc3Sc3ccc(C(F)(F)F)cc32)CC1 [ZZW-115 (hydrochloride)]	1.13 ± 0.1	0.678 ± 0.045
CC[C@H](CO)Nc1nc(NCc2ccc(-c3ccccn3)cc2)c2ncn(C(C)C)c2n1 [(R)-CR8 (trihydrochloride)]	0.777 ± 0.14	0.722 ± 0.1
Nc1ncnc2n[nH]c(Nc3ccc(F)cc3)c12	0.897 ± 0.11	0.904 ± 0.11
Cn1cc(-c2ccc3c(c2)CCN3C(=O)Cc2cccc(C(F)(F)F)c2)c2c(N)ncnc21	1.02 ± 0.085	0.988 ± 0.23
Oc1cccc(-c2nc(N3CCOCC3)c3oc4ncccc4c3n2)c1	0.978 ± 0.059	0.696 ± 0.086
Cc1cc(C)c(S(=O)(=O)Nc2cccc(C(F)(F)F)c2)c(C)c1	0.633 ± 0.14	0.364 ± 0.18
CCN(CC)CCCCNc1ncc2cc(-c3cc(OC)cc(OC)c3)c(NC(=O)NC(C)(C)C)nc2n1	0.91 ± 0.16	0.761 ± 0.021
Cc1ccc(Oc2ccnc3cc(-c4cnn(C5CCNCC5)c4)ccc23)cc1	0.854 ± 0.023	0.492 ± 0.1
Cc1nc(-c2nc(-c3ccc(OC(F)(F)F)cc3)no2)nn1Cc1cccc(N2CCC(S(C)(=O)=O)CC2)c1	0.925 ± 0.098	1.05 ± 0.014
C[C@H](CCC(=O)NCCS(=O)(=O)O)[C@H]1CC[C@H]2[C@@H]3[C@@H](O)C[C@@H]4C[C@H](O)CC[C@]4(C)[C@H]3CC[C@]12C [Tauroursodeoxycholate (Sodium)]	1.1 ± 0.085	0.91 ± 0.027
O=C1CCC(N2C(=O)c3ccccc3C2=O)C(=O)N1 (configuration not stated)	1.18 ± 0.09	0.948 ± 0.098
Clc1ccc(C(Cn2ccnc2)OCc2csc3c(Cl)cccc23)c(Cl)c1 (configuration not stated) [Sertaconazole (nitrate)]	0.953 ± 0.1	0.654 ± 0.27
C[C@H]1[C@H](OC(=O)CCC(=O)O)O[C@@H]2O[C@@]3(C)CC[C@H]4[C@H](C)CC[C@@H]1[C@@]24OO3 [Artesunate]	1.09 ± 0.051	0.66 ± 0.48
COC(=O)[C@H](CCSC)NC(=O)c1ccc(NC[C@@H](N)CS)cc1-c1ccccc1 [FTI-277 (hydrochloride)]	1.18 ± 0.077	0.841 ± 0.5
O=C1CCC(N2Cc3c(C#CCCCNC(=O)c4ccc(NC(=O)[C@@H]5NC6(CCCCC6)[C@@]6(C(=O)Nc7cc(Cl)ccc76)[C@H]5c5cccc(Cl)c5F)cc4)cccc3C2=O)C(=O)N1 (some centres not stated)	1.01 ± 0.064	0.936 ± 0.0057

Structure (SMILES)	cell count (compound dose 1 µM)	cell count (compound dose 5 µM)
C[C@H]1Oc2cc(cnc2N)-c2c(nn(C)c2C#N)CN(C)C(=O)c2ccc(F)cc21 [Lorlatinib]	1.06 ± 0.21	0.777 ± 0.57
O=C1NC(=O)[C@@H](c2cn3c4c(cccc24)CCC3)[C@@H]1c1c[nH]c2ccccc12 [Tivantinib]	0.832 ± 0.086	0.551 ± 0.032
CCc1cnn2c(NCc3ccc[n+]([O-])c3)cc(N3CCCC[C@H]3CCO)nc12 [Dinaciclib]	0.706 ± 0.038	0.612 ± 0.095
COc1ccc(-c2cc(=O)c3c(OC)c(OC)c(OC)cc3o2)cc1OC [Sinensetin]	1.08 ± 0.061	1.2 ± 0.057
CC(C(=O)Nc1cccc(/N=C/c2c(O)ccc3ccccc23)c1)c1ccccc1 (configuration not stated) [Salermide]	1.14 ± 0.12	1.12 ± 0.13
COc1nc(N)nc2c1ncn2[C@@H]1O[C@H](CO)[C@@H](O)[C@@H]1O [Nelarabine]	1.06 ± 0.081	1.09 ± 0.022
COc1cccc(-c2cc(F)ccc2[C@H]2Cc3nc(N)nc(C)c3C(=O)N2)n1	0.455 ± 0.026	0.419 ± 0.093
O=C(Nc1cccc(Nc2ncc(Br)c(NCCc3cnc[nH]3)n2)c1)N1CCCC1	1.19 ± 0.06	0.896 ± 0.21
Cn1cnc([N+](=O)[O-])c1Sc1ncnc2[nH]cnc12 [Azathioprine]	1.254 ± 0.011	0.835 ± 0.077
S=C(NCc1ccc2c(c1)OCO2)N1CCN(c2ncnc3c2oc2ccccc23)CC1 [Amuvatinib (MP-470)]	0.959 ± 0.076	0.603 ± 0.26
COc1ccc(/C=C/C(=O)c2ccc(OC)c3c2OC(C)(C)C=C3)cc1 [Millepachine]	1.05 ± 0.093	0.847 ± 0.1
CN1C(=O)N[C@@H](Cc2c[nH]c3c(Cl)cccc23)C1=O [Necrostatin 2 (S enantiomer)]	0.822 ± 0.044	0.976 ± 0.09
CC1(C)CCC2=C(O1)c1ccccc1C(=O)C2=O [beta-LAPACHONE]	0.8645 ± 0.0035	0.926 ± 0.22
Cn1c(Nc2ccc(C(F)(F)F)cc2)nc2cc(Oc3ccnc(-c4ncc(C(F)(F)F)[nH]4)c3)ccc21	1.13 ± 0.13	1.29 ± 0.052
CCOC(=O)[C@@]1(CCCCCCOc2ccc(Cl)cc2)CO1 [Etomoxir (sodium salt)]	1.11 ± 0.058	0.962 ± 0.03
CCOC(=O)[C@@]1(CCCCCCOc2ccc(Cl)cc2)CO1 [Etomoxir]	1.509 ± 0.0085	1.35 ± 0.057
Cc1cc(O)c(-c2ccc([C@@H](C)CN(C)C)cc2)c2c1[nH]c(=O)c1sccc12 [OTS964 (hydrochloride)]	0.464 ± 0.037	0.564 ± 0.02
C[C@H](CCC(=O)O)[C@H]1CC[C@H]2[C@@H]3CC[C@@H]4C[C@H](O)CC[C@]4(C)[C@H]3CC[C@]12C [Lithocholic acid]	1 ± 0.082	1.09 ± 0.047
CCOc1cc(C(C)(C)C)ccc1C1=N[C@@](C)(c2ccc(Cl)cc2)[C@@](C)(c2ccc(Cl)cc2)N1C(=O)N1CCN(CCCS(C)(=O)=O)CC1	1.18 ± 0.17	0.821 ± 0.043
CN(C)CCCN1c2ccccc2CCc2ccccc21	0.889 ± 0.16	0.741 ± 0.1
COc1ccc(/C=C/C(=O)c2c(-c3ccccc3)c3ccccc3[nH]c2=O)cc1 [Ceranib-2]	0.711 ± 0.051	0.808 ± 0.011
CC1(C)CC[C@]2(C(=O)n3cnc(-c4cccnc4)c3)CC[C@]3(C)[C@H](C(=O)C=C4[C@@]5(C)C=C(C#N)C(=O)C(C)(C)[C@@H]5CC[C@]43C)[C@@H]2C1	0.216 ± 0.04	0.0195 ± 0.011

Structure (SMILES)	cell count (compound dose 1 µM)	cell count (compound dose 5 µM)
Clc1ccc(Nc2nnc(Cc3ccncc3)c3ccccc23)cc1 [Vatalanib (PTK787) 2HCl]	0.908 ± 0.12	0.776 ± 0.028
C/C=C1\[C@H]2C=C(C)C[C@]1(N)c1ccc(=O)[nH]c1C2 [(-)-Huperzine A]	0.608 ± 0.076	0.448 ± 0.087
CCOC(=O)[C@H](CCc1ccccc1)N[C@@H](C)C(=O)N1Cc2cc(OC)c(OC)cc2C[C@H]1C(=O)O [Moexipril (hydrochloride)]	0.842 ± 0.072	0.439 ± 0.073
COc1cc(/C=C/C(=O)CC(=O)/C=C/c2ccc(O)c(OC)c2)ccc1O	0.727 ± 0.27	0.57 ± 0.1
O=C1C(SCCO)=C(SCCO)C(=O)c2ccccc21	1.13 ± 0.052	0.0775 ± 0.052
COC(=O)CC(NC(=O)OC(C)(C)C)C(=O)CF (configuration not stated)	0.729 ± 0.03	0.473 ± 0.18
CC/C(=C(\c1ccccc1)c1ccc(OCCN(C)C)cc1)c1ccccc1 [Tamoxifen (Citrate)]	0.961 ± 0.12	0.55 ± 0.071
CCc1oc2ccccc2c1C(=O)c1cc(Br)c(O)c(Br)c1	1.12 ± 0.077	1.21 ± 0.2
Cn1cc(-c2ccc(S(=O)(=O)n3ccc(/C=C/C(=O)Nc4ccccc4N)c3)cc2)cn1	1.08 ± 0.13	0.871 ± 0.056
CC(C)c1cccc(C(C)C)c1NC(=O)NCC1(c2ccc(N(C)C)cc2)CCCC1 [Nevanimibe hydrochloride]	0.991 ± 0.12	1.03 ± 0.11
CCN(CCCOc1ccc2c(Nc3cc(CC(=O)Nc4cccc(F)c4)[nH]n3)ncnc2c1)CCOP(=O)(O)O [Barasertib (AZD1152-HQPA)]	1.23 ± 0.2	1.16 ± 0.061
CCN(CCCOc1ccc2c(Nc3cc(CC(=O)Nc4cccc(F)c4)[nH]n3)ncnc2c1)CCOP(=O)(O)O [Barasertib]	1.3 ± 0.33	0.98 ± 0.2
CN(C)CCCCC(=O)Nc1ccc(NC(=S)NC(=O)c2ccc(C(C)(C)C)cc2)cc1 [Tenovin-6]	0.991 ± 0.029	0.871 ± 0.063
COc1cc2ncnc(Nc3ccc(F)c(Cl)c3)c2cc1OCCCN1CCOCC1 [Gefitinib (ZD1839)]	0.809 ± 0.089	0.5485 ± 0.005
CN[C@@H](C)C(=O)N[C@H](C(=O)N1CCC[C@H]1C(=O)Nc1sc(-c2ncco2)nc1-c1ccccc1)C1CCCCC1	0.37 ± 0.083	0.144 ± 0.054
COC(=O)[C@]12CCC(C)(C)C[C@H]1[C@H]1C(=O)C=C3[C@@]4(C)C=C(C#N)C(=O)C(C)(C)[C@@H]4CC[C@@]3(C)[C@]1(C)CC2 [Bardoxolone methyl]	0.0875 ± 0.019	0.0245 ± 0.0078
CC(C)Cc1ccc(C(C)C(=O)O)cc1 (configuration not stated)	0.877 ± 0.054	0.481 ± 0.37
CN(C(=O)c1c(O)c2ccccc2n(C)c1=O)c1ccccc1 [Roquinimex]	1.09 ± 0.18	0.761 ± 0.17
Cc1ccc(S(=O)(=O)Nc2cc(-c3ccc(C#N)s3)ccc2C)cc1	0.809 ± 0.2	0.877 ± 0.011
Cc1ncc(COP(=O)([O-])[O-])c(CN(CCN(CC(=O)O)Cc2c(COP(=O)([O-])O)cnc(C)c2O)CC(=O)O)c1O.[Mn].[Na+].[Na+].[Na+]	0.871 ± 0.066	0.59 ± 0.32
O=c1c(O)c(-c2ccc(O)c(O)c2)oc2cc(O)cc(O)c12 [Quercetin]	1.24 ± 0.16	1.12 ± 0.2
COc1ccc(C2=N[C@H](c3ccc(Cl)cc3)[C@H](c3ccc(Cl)cc3)N2C(=O)N2CCNC(=O)C2)c(OC(C)C)c1 [Nutlin-3b]	0.712 ± 0.022	0.56 ± 0.18

Reformatted: entries from further up.
Structure (SMILES),cell count (compound dose 1 µM),cell count (compound dose 5 µM)
C[C@H](CCC(=O)O)[C@H]1CC[C@H]2[C@@H]3CC[C@@H]4C[C@H](O)CC[C@]4(C)[C@H]3CC[C@]12C [Lithocholic acid],1 ± 0.082,1.09 ± 0.047
CCOc1cc(C(C)(C)C)ccc1C1=N[C@@](C)(c2ccc(Cl)cc2)[C@@](C)(c2ccc(Cl)cc2)N1C(=O)N1CCN(CCCS(C)(=O)=O)CC1,1.18 ± 0.17,0.821 ± 0.043
CN(C)CCCN1c2ccccc2CCc2ccccc21,0.889 ± 0.16,0.741 ± 0.1
COc1ccc(/C=C/C(=O)c2c(-c3ccccc3)c3ccccc3[nH]c2=O)cc1 [Ceranib-2],0.711 ± 0.051,0.808 ± 0.011
CC1(C)CC[C@]2(C(=O)n3cnc(-c4cccnc4)c3)CC[C@]3(C)[C@H](C(=O)C=C4[C@@]5(C)C=C(C#N)C(=O)C(C)(C)[C@@H]5CC[C@]43C)[C@@H]2C1,0.216 ± 0.04,0.0195 ± 0.011
Clc1ccc(Nc2nnc(Cc3ccncc3)c3ccccc23)cc1 [Vatalanib (PTK787) 2HCl],0.908 ± 0.12,0.776 ± 0.028
C/C=C1\[C@H]2C=C(C)C[C@]1(N)c1ccc(=O)[nH]c1C2 [(-)-Huperzine A],0.608 ± 0.076,0.448 ± 0.087
CCOC(=O)[C@H](CCc1ccccc1)N[C@@H](C)C(=O)N1Cc2cc(OC)c(OC)cc2C[C@H]1C(=O)O [Moexipril (hydrochloride)],0.842 ± 0.072,0.439 ± 0.073
COc1cc(/C=C/C(=O)CC(=O)/C=C/c2ccc(O)c(OC)c2)ccc1O,0.727 ± 0.27,0.57 ± 0.1
O=C1C(SCCO)=C(SCCO)C(=O)c2ccccc21,1.13 ± 0.052,0.0775 ± 0.052
COC(=O)CC(NC(=O)OC(C)(C)C)C(=O)CF (configuration not stated),0.729 ± 0.03,0.473 ± 0.18
CC/C(=C(\c1ccccc1)c1ccc(OCCN(C)C)cc1)c1ccccc1 [Tamoxifen (Citrate)],0.961 ± 0.12,0.55 ± 0.071
CCc1oc2ccccc2c1C(=O)c1cc(Br)c(O)c(Br)c1,1.12 ± 0.077,1.21 ± 0.2
Cn1cc(-c2ccc(S(=O)(=O)n3ccc(/C=C/C(=O)Nc4ccccc4N)c3)cc2)cn1,1.08 ± 0.13,0.871 ± 0.056
CC(C)c1cccc(C(C)C)c1NC(=O)NCC1(c2ccc(N(C)C)cc2)CCCC1 [Nevanimibe hydrochloride],0.991 ± 0.12,1.03 ± 0.11
